PubChem BioAssay AID1159578 – Peter MacCallum Cancer Centre – 2015

- Test: 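Knock-downs that alter how fast lymphatic endothelial cells migrate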 (primary screen)
- Cells: human lymphatic endothelial cells
- Knock-down reagent: siRNA pool against human genes, 40 nM
- Timing: 48 h after transfection
- Measurement: 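High-content imaging of dye-stained cells in a scratch assay measures filled wound area and nuclei per well; duplicate means given as ratio to mock and robust z-score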
- Direction: migration robust z-score: higher = faster migration into the scratch; nuclei per well: higher = more cells in the well
- Call rule: 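Pools averaging fewer than 3300 nuclei are never called; remaining pools count as changed when migration robust z lies outside -2 to 2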
- Calls: active = migration changed; inactive = no migration change, or too few cells
Shown is one part, drawn at random, of about 18,000 reagents. Of all reagents, about 1,030 (5.7%) got an active call. 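Inactive calls also include pools with fewer than 3300 nuclei, whose migration was not assessed.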 The raw values are shown without normalisation. A number with no mark means an inactive call. Further read-outs or replicates are left out here.

{"Gene": "IFNA21 (interferon alpha 21)", "migration robust z-score": -0.07, "nuclei per well, duplicate mean": 6076}
{"Gene": "RUMY4 (RUMY family member 4)", "migration robust z-score": 0.29, "nuclei per well, duplicate mean": 6244}
{"Gene": "NOMO3 (NODAL modulator 3)", "migration robust z-score": 0.65, "nuclei per well, duplicate mean": 6479}
{"Gene": "SMPX (small muscle protein X-linked)", "migration robust z-score": "2.68 (active)", "nuclei per well, duplicate mean": 5010}
{"Gene": "NLGN4Y (neuroligin 4 Y-linked)", "migration robust z-score": -0.96, "nuclei per well, duplicate mean": 5743}
{"Gene": "NME9 (NME/NM23 family member 9)", "migration robust z-score": 0.26, "nuclei per well, duplicate mean": 6500}
{"Gene": "CLPB (ClpB family mitochondrial disaggregase)", "migration robust z-score": -1.2, "nuclei per well, duplicate mean": 4293}

Records above with an active call:
{"Gene": "SMPX (small muscle protein X-linked)", "migration robust z-score": "2.68 (active)", "nuclei per well, duplicate mean": 5010}

The list goes on.
{"Gene": "SLC43A2", "migration robust z-score": -1.95, "nuclei per well, duplicate mean": 4498}
{"Gene": "GADD45A (growth arrest and DNA damage inducible alpha)", "migration robust z-score": 0.83, "nuclei per well, duplicate mean": 6182}
{"Gene": "TRMT6 (tRNA methyltransferase 6 non-catalytic subunit)", "migration robust z-score": -0.48, "nuclei per well, duplicate mean": 6472}
{"Gene": "RND1 (Rho family GTPase 1)", "migration robust z-score": -0.6, "nuclei per well, duplicate mean": 7412}
{"Gene": "MKLN1 (muskelin 1)", "migration robust z-score": 0.66, "nuclei per well, duplicate mean": 5822}
{"Gene": "CFLAR (CASP8 and FADD like apoptosis regulator)", "migration robust z-score": -0.05, "nuclei per well, duplicate mean": 5539}
{"Gene": "COA7 (cytochrome c oxidase assembly factor 7)", "migration robust z-score": 1.78, "nuclei per well, duplicate mean": 6230}
{"Gene": "ZFYVE19 (zinc finger FYVE-type containing 19)", "migration robust z-score": -0.64, "nuclei per well, duplicate mean": 5026}
{"Gene": "FUT6 (fucosyltransferase 6)", "migration robust z-score": -1.34, "nuclei per well, duplicate mean": 5522}
{"Gene": "BRI3 (brain protein I3)", "migration robust z-score": -0.26, "nuclei per well, duplicate mean": 6146}
{"Gene": "RAB40C (RAB40C, member RAS oncogene family)", "migration robust z-score": 1.58, "nuclei per well, duplicate mean": 5460}
{"Gene": "PPP1CB (protein phosphatase 1 catalytic subunit beta)", "migration robust z-score": -0.9, "nuclei per well, duplicate mean": 5414}
{"Gene": "MOCS1 (molybdenum cofactor synthesis 1)", "migration robust z-score": -0.03, "nuclei per well, duplicate mean": 6007}
{"Gene": "POFUT1 (protein O-fucosyltransferase 1)", "migration robust z-score": 0.08, "nuclei per well, duplicate mean": 6582}
